# Drug screen on melanoma cell lines: apoptosis marker

From a melanoma drug combination screen (doi:10.1371/journal.pone.0140310); values rounded.

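The test systems are human melanoma cell lines, treated with two drugs together for 72 h and then stained and imaged. Values are the share of nuclei positive for cleaved PARP as a percentage of the same share in the DMSO control: 100 is the control level, higher means more apoptosis. Every drug was used at one fixed concentration, the higher of two screened. No replicate spread is given; individual values may be noisy. Basal and induced levels differ widely between cell lines.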
Only some of the drugs and lines screened are listed, without regard to their results.
An entry leaves out what has no value listed here.
A dash means that no value is listed here.

First drug in all entries: indole-3-carbinol, 4 µM, OCc1c[nH]c2ccccc12

CN(NC(=O)CC(=O)NN(C)C(=S)c1ccccc1)C(=S)c1ccccc1 at 0.03 µM gave SK-MEL-30: 308; A2058: 3180; WM1716: 61.2; WM451Lu: 41.8; WM115: 1870; G-361: 549; MEL-HO: 78.3; WM1745: 414.
Cn1cncc1[C@@](N)(c1ccc(Cl)cc1)c1ccc2c(c1)c(-c1cccc(Cl)c1)cc(=O)n2C at 0.05 µM gave SK-MEL-30: 85.0; A2058: 189; WM1716: 65.3; WM451Lu: 133; WM115: 179; G-361: 104; MEL-HO: 66.2; WM1745: 63.8.
Cn1c(Nc2ccc(C(F)(F)F)cc2)nc2cc(Oc3ccnc(-c4ncc(C(F)(F)F)[nH]4)c3)ccc21 at 0.4 µM gave SK-MEL-30: 200; A2058: 141; WM1716: 76.5; WM451Lu: 169; WM115: 946; G-361: 422; MEL-HO: 120; WM1745: 152.
C[C@]1(c2nc3c(C(N)=O)cccc3[nH]2)CCCN1 at 7 µM gave SK-MEL-30: 96.5; A2058: 114; WM1716: 71.6; WM451Lu: 63.7; WM115: 30.4; G-361: 62.6; MEL-HO: 39.7; WM1745: 105.
COc1ccc(COc2ccc(Cc3cnc(N)nc3N)cc2OC)cc1 at 5 µM gave SK-MEL-30: 150; A2058: 99.2; WM1716: 235; WM451Lu: 98.4; WM115: 106; G-361: 74.7; MEL-HO: 40.2.
Cc1nc(Nc2ncc(C(=O)Nc3c(C)cccc3Cl)s2)cc(N2CCN(CCO)CC2)n1 at 0.02 µM gave SK-MEL-30: 94.1; A2058: 276; WM1716: 188; WM451Lu: 158; WM115: 163; G-361: 140; MEL-HO: 53.3; WM1745: 580.
Cc1cc([N+](=O)[O-])ccc1NS(=O)(=O)c1cc(Cl)ccc1Cl at 5 µM gave SK-MEL-30: 132; A2058: 49.8; WM1716: 81.9; WM451Lu: 75.8; WM115: 124; G-361: 224; MEL-HO: 154.
C[C@@H](Oc1cc(-c2cnn(C3CCNCC3)c2)cnc1N)c1c(Cl)ccc(F)c1Cl at 1 µM gave SK-MEL-30: 55.1; A2058: 77.8; WM1716: 82.2; WM451Lu: 56.6; WM115: 323; G-361: 193; MEL-HO: 27.8; WM1745: 124.
CC1(C)NC(=O)N(c2ccc([N+](=O)[O-])c(C(F)(F)F)c2)C1=O at 5 µM gave SK-MEL-30: 44.0; A2058: 114; WM1716: 123; WM451Lu: 61.6; WM115: 45.4; G-361: 99.3; MEL-HO: 35.8; WM1745: 75.0.
O=C(Nc1ccccc1)c1cc([N+](=O)[O-])ccc1Cl at 10 µM gave SK-MEL-30: 146; A2058: 113; WM1716: 96.0; WM451Lu: 115; WM115: 65.3; G-361: 35.8; MEL-HO: 89.0.
C[C@@H]1CCN(C(=O)CC#N)C[C@@H]1N(C)c1ncnc2[nH]ccc12 at 5 µM gave SK-MEL-30: 57.9; A2058: 101; WM1716: 81.5; WM451Lu: 46.7; WM115: 38.3; G-361: 109; MEL-HO: 135; WM1745: 99.1.
O=C(/C=C/c1cccnc1)NCCCCC1CCN(C(=O)c2ccccc2)CC1 at 0.05 µM gave SK-MEL-30: 55.5; A2058: 72.6; WM1716: 105; WM451Lu: 115; WM115: 107; G-361: 7350; MEL-HO: 220; WM1745: 95.9.
CCCCCCCCc1ccc(CCC(N)(CO)CO)cc1 at 10 µM gave SK-MEL-30: 2940; A2058: 2770; WM1716: 5730; WM451Lu: 6050; WM115: 1030; G-361: 12600; MEL-HO: 1800; WM1745: 708.
CC(C)(C)c1cnc(CSc2cnc(NC(=O)C3CCNCC3)s2)o1 at 0.05 µM gave SK-MEL-30: 168; A2058: 218; WM1716: 94.6; WM451Lu: 162; WM115: 175; G-361: 183; MEL-HO: 264; WM1745: 102.
O=C(O)C(=O)Nc1sc2c(c1C(=O)O)CCNC2 at 8.33 µM gave SK-MEL-30: 51.1; A2058: 104; WM1716: 58.7; WM451Lu: 98.7; WM115: 117; G-361: 132; MEL-HO: 53.1.
CO[C@H]1C[C@@H]2CC[C@@H](C)[C@@](O)(O2)C(=O)C(=O)N2CCCC[C@H]2C(=O)O[C@H]([C@H](C)C[C@@H]2CC[C@@H](OCCO)[C@H](OC)C2)CC(=O)[C@H](C)/C=C(\C)[C@@H](O)[C@@H](OC)C(=O)[C@H](C)C[C@H](C)/C=C/C=C/C=C/1C at 0.1 µM gave SK-MEL-30: 157; A2058: 139; WM1716: 85.5; WM451Lu: 1240; WM115: 158; G-361: 167; MEL-HO: 51.7; WM1745: 104.
Nc1cccc2c1CN(C1CCC(=O)NC1=O)C2=O (stereo not drawn) at 5 µM gave SK-MEL-30: 162; A2058: 119; WM1716: 43.1; WM451Lu: 49.6; WM115: 245; G-361: 96.4; MEL-HO: 72.0; WM1745: 133.
COCC[n+]1c2c(n(Cc3cnccn3)c1C)C(=O)c1ccccc1C2=O at 0.002 µM gave SK-MEL-30: 65.4; A2058: 544; WM1716: 103; WM451Lu: 92.0; WM115: 126; G-361: 56.1; MEL-HO: 139; WM1745: 98.2.
N#Cc1c(O)c2c(-c3ccc(-c4ccccc4O)cc3)csc2[nH]c1=O at 10 µM gave SK-MEL-30: 76.0; A2058: 109; WM1716: 137; WM451Lu: 71.3; WM115: 90.4; G-361: 69.8; MEL-HO: 113.
C=CCn1c(=O)c2cnc(Nc3ccc(N4CCN(C)CC4)cc3)nc2n1-c1cccc(C(C)(C)O)n1 at 0.1 µM gave SK-MEL-30: 323; A2058: 222; WM1716: 111; WM451Lu: 144; WM115: 89.5; G-361: 135; MEL-HO: 88.0; WM1745: 137.
O=C(Nc1cccc(Cl)c1)Nc1ncc(CCNc2ncnc3ccsc23)s1 at 0.004 µM gave SK-MEL-30: 32.1; A2058: 66.2; WM1716: 64.2; WM451Lu: 114; WM115: 47.4; G-361: 75.3; MEL-HO: 81.9; WM1745: 74.5.
CC(=O)O[C@@]12CO[C@@H]1C[C@H](O)[C@@]1(C)C(=O)[C@H](O)C3=C(C)[C@@H](OC(=O)[C@H](O)[C@@H](NC(=O)OC(C)(C)C)c4ccccc4)C[C@@](O)([C@@H](OC(=O)c4ccccc4)[C@H]21)C3(C)C at 0.0005 µM gave SK-MEL-30: 755; A2058: 1630; WM1716: 1400; WM451Lu: 410; WM115: 806; G-361: 668; MEL-HO: 152; WM1745: 181.
Cn1cc(C2=C(c3cn(C4CCN(Cc5ccccn5)CC4)c4ccccc34)C(=O)NC2=O)c2ccccc21 at 4 µM gave SK-MEL-30: 93.6; A2058: 89.7; WM1716: 204; WM451Lu: 65.2; WM115: 141; G-361: 110; MEL-HO: 124; WM1745: 185.
Cc1ccc(Nc2nccc(N(C)c3ccc4c(C)n(C)nc4c3)n2)cc1S(N)(=O)=O at 2 µM gave SK-MEL-30: 41.7; A2058: 104; WM1716: 87.7; WM451Lu: 192; WM115: 78.6; G-361: 103; MEL-HO: 132; WM1745: 89.5.
COc1ccc(-c2ccc3c(N4CCOCC4)nc(N4C[C@@H](C)O[C@@H](C)C4)nc3n2)cc1CO at 0.1 µM gave SK-MEL-30: 103; A2058: 93.0; WM1716: 67.8; WM451Lu: 113; WM115: 485; G-361: 75.3; MEL-HO: 48.1.
COc1ccc(C2=N[C@@H](c3ccc(Cl)cc3)[C@@H](c3ccc(Cl)cc3)N2C(=O)N2CCNC(=O)C2)c(OC(C)C)c1 at 0.5 µM gave SK-MEL-30: 91.2; A2058: 69.6; WM1716: 69.2; WM451Lu: 71.3; WM115: 119; G-361: 97.5; MEL-HO: 78.7; WM1745: 88.9.

Some entries from above, unchanged:

Partner	SK-MEL-30	A2058	WM1716	WM451Lu	WM115	G-361	MEL-HO	WM1745
O=C(O)C(=O)Nc1sc2c(c1C(=O)O)CCNC2 at 8.33 µM	51.1	104	58.7	98.7	117	132	53.1	-
O=C(Nc1cccc(Cl)c1)Nc1ncc(CCNc2ncnc3ccsc23)s1 at 0.004 µM	32.1	66.2	64.2	114	47.4	75.3	81.9	74.5